Results deposited as PubChem BioAssay AID504808 (Drosophila RNAi Screening Center, 2011).
In all, the deposit lists about 21,000 reagents; below is an unselected part of those that have a named target and a result. In the full data, 18 (0.084%) got an active call. 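Raw counts without plate normalisation, one of two replicates; the ratio scores behind the calls were not deposited.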 A plus sign joins genes that one reagent is predicted to hit. Not given: the amount of reagent, the time to read-out.

Aim: 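Fly genes required to hold E2F transcription in check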 (primary screen)
System: Drosophila S2 cells
Knock-down reagent: long dsRNA against Drosophila genes
Measured: 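Firefly luciferase driven by E2F sites, normalised to Renilla luciferase on the same minimal promoter, measured by plate reader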
Scale: E2F firefly: higher = more E2F reporter activity; Renilla normaliser: higher = more normaliser reporter signal
Call rule: 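a knock-down counted as active when the firefly/Renilla E2F signal rose above 50%, a threshold chosen arbitrarily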

| gene | amplicon | E2F firefly, rep 1 | Renilla normaliser, rep 1 | outcome |
| --- | --- | --- | --- | --- |
| uzip (unzipped) | DRSC04722 | 83827 | 3613 | inactive |
| CG6415 | DRSC02954 | 79357 | 3293 | inactive |
| CG12320 | DRSC14498 | 1.47e5 | 7351 | inactive |
| CSN4 (COP9 signalosome subunit 4) | DRSC07350 | 1.35e5 | 4437 | inactive |
| CG15745 (retired record) | DRSC19711 | 7844 | 425 | inactive |
| pyr (pyramus) | DRSC06319 | 94368 | 4070 | inactive |
| CG13086 | DRSC02190 | 97521 | 3620 | inactive |
| Dhc16F (Dynein heavy chain at 16F) | DRSC20242 | 1.60e5 | 6795 | inactive |
| CG15545 | DRSC15083 | 1.17e5 | 6547 | inactive |
| CG5849 | DRSC15893 | 1.36e5 | 7551 | inactive |
| dan (distal antenna) | DRSC14406 | 65630 | 3557 | inactive |
| CG7236 | DRSC03037 | 1.27e5 | 4821 | inactive |
| IM33 (Immune induced molecule 33) | DRSC00476 | 1.30e5 | 4945 | inactive |
| oxt (peptide O-xylosyltransferase) | DRSC08522 | 68460 | 3301 | inactive |
| CG10098 | DRSC12509 | 64220 | 2960 | inactive |
| path (pathetic) | DRSC10361 | 1.49e5 | 7324 | inactive |
| CG5104 | DRSC11765 | 1.45e5 | 8148 | inactive |
| CG31788 | DRSC01630 | 1.31e5 | 5195 | inactive |
| Cnep1r2 (CTD nuclear envelope phosphatase 1 regulatory subunit 2) | DRSC10950 | 85022 | 3437 | inactive |
| CG17030 | DRSC08503 | 97348 | 3700 | inactive |
| tim (timeless) | DRSC00841 | 82270 | 3188 | inactive |
| Buffy | DRSC05957 | 92847 | 3771 | inactive |
| CG13674 | DRSC10033 | 87938 | 3201 | inactive |
| RIC-3 (RIC3 acetylcholine receptor chaperone) | DRSC04243 | 82857 | 3688 | inactive |
| RIC-3 (RIC3 acetylcholine receptor chaperone) | DRSC04543 | 87494 | 3743 | inactive |
| Ugt302C1 (UDP-glycosyltransferase family 302 member C1) | DRSC15353 | 70074 | 3454 | inactive |
| CG6683 | DRSC10694 | 76321 | 3090 | inactive |
| CG9316 | DRSC03195 | 1.02e5 | 4452 | inactive |
| CG34460 | DRSC06974 | 1.58e5 | 5596 | inactive |
| MrgBP (MRG/MORF4L binding protein) | DRSC06417 | 1.66e5 | 4819 | inactive |
| CG17528 | DRSC07761 | 97723 | 4243 | inactive |
| CG6553 | DRSC07002 | 93336 | 3712 | inactive |
| Srp72 (Signal recognition particle 72) | DRSC15800 | 61629 | 3605 | inactive |
| CG9101 | DRSC20152 | 1.54e5 | 7966 | inactive |
| CG33330 (retired record) | DRSC13053 | 95956 | 3410 | inactive |
| CG33330 (retired record) | DRSC15495 | 73589 | 3651 | inactive |
| Xrcc2 (X-ray repair cross complementing 2) | DRSC19984 | 2.32e5 | 5616 | inactive |
| CG4597 | DRSC10432 | 88234 | 3717 | inactive |
| CG3611 | DRSC04395 | 1.16e5 | 4152 | inactive |
| CG4650 | DRSC02767 | 95455 | 3691 | inactive |
| Vha14-2 (Vacuolar H[+] ATPase 14kD subunit 2) | DRSC12145 | 1.31e5 | 6880 | inactive |
| CG15025 | DRSC15031 | 1.35e5 | 6755 | inactive |
| vri (vrille) | DRSC03633 | 1.37e5 | 4557 | inactive |
| CG12684 | DRSC17875 | 1.07e5 | 5601 | inactive |
| InR (Insulin-like receptor) | DRSC16717 | 1.47e5 | 7345 | inactive |
| Obp99c (Odorant-binding protein 99c) | DRSC16262 | 1.26e5 | 5658 | inactive |
| CG15818 | DRSC02505 | 94096 | 3635 | inactive |
| uif (uninflatable) | DRSC00963 | 1.09e5 | 5041 | inactive |
| uif (uninflatable) | DRSC03427 | 1.41e5 | 5176 | inactive |
| CG33255 (retired record) + hpRNA:CR32205 | DRSC09610 | 87488 | 3389 | inactive |
| CG33255 (retired record) + hpRNA:CR32205 | DRSC09611 | 92540 | 4092 | inactive |
| eIF3a (eukaryotic translation initiation factor 3 subunit a) | DRSC12339 | 74465 | 6723 | inactive |
| CG5783 | DRSC02894 | 1.02e5 | 4561 | inactive |
| CG30431 | DRSC04902 | 78000 | 3734 | inactive |
| CG30431 | DRSC04904 | 1.05e5 | 4329 | inactive |
| CG1738 | DRSC19772 | 97006 | 5656 | inactive |
| cpb (capping protein beta) | DRSC00809 | 95027 | 4345 | inactive |
| Sln (Silnoon) | DRSC07133 | 92643 | 4488 | inactive |
| l(2)gl (lethal (2) giant larvae) | DRSC00825 | 58875 | 2981 | inactive |
| Hen1 (Hen1 methyltransferase) | DRSC06139 | 187 | 46 | inactive |
| Hen1 (Hen1 methyltransferase) | DRSC06140 | 87182 | 4375 | inactive |
| VhaAC45 (Vacuolar H[+] ATPase AC45 accessory subunit) | DRSC07058 | 3081 | 209 | inactive |
| tyn (trynity) | DRSC20652 | 1.50e5 | 7843 | inactive |
| CG14195 | DRSC19550 | 1.27e5 | 281 | inactive |
| NaCP60E (Na channel protein 60E) | DRSC04307 | 86076 | 3393 | inactive |
| Rpn11 (Regulatory particle non-ATPase 11) | DRSC03422 | 94711 | 129 | inactive |
| Proc (Proctolin) | DRSC03009 | 1.15e5 | 126 | inactive |
| CG18262 | DRSC18149 | 1.43e5 | 5307 | inactive |
| Nup50 (Nucleoporin 50kD) | DRSC06827 | 2623 | 219 | inactive |
| HP4 (Heterochromatin protein 4) | DRSC10958 | 68233 | 3523 | inactive |
| Cpr65Ec (Cuticular protein 65Ec) | DRSC11025 | 88506 | 3650 | inactive |
| AGBE (1,4-Alpha-Glucan Branching Enzyme) | DRSC06861 | 3486 | 189 | inactive |
| mahj (mahjong) | DRSC04053 | 72071 | 4120 | inactive |
| not (non-stop) | DRSC11378 | 70687 | 4219 | inactive |
| CG16813 | DRSC02520 | 1.03e5 | 4216 | inactive |
| CG2750 | DRSC19867 | 73988 | 3586 | inactive |
| CaMKI (Calcium/calmodulin-dependent protein kinase I) | DRSC17162 | 1883 | 896 | inactive |
| CG34039 | DRSC09318 | 1.34e5 | 3672 | inactive |
| qtc (quick-to-court) | DRSC02364 | 98860 | 4114 | inactive |
| qtc (quick-to-court) | DRSC02365 | 1.44e5 | 5058 | inactive |
| CG10621 | DRSC02078 | 98408 | 4517 | inactive |
| CG12535 | DRSC17838 | 1.06e5 | 5069 | inactive |
| Arglu1 (Arginine and glutamate rich 1) | DRSC02909 | 1.58e5 | 5072 | inactive |
| CG5096 | DRSC02813 | 1.63e5 | 4745 | inactive |
